Values from PubChem BioAssay AID1259289 (Sanger Institute, 2017)
Purpose: 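Kinase-wide silencing tested with three anchor drugs to reveal synergistic lethal pairs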 (primary screen). Cell system: human LS513 colorectal cancer cells. Knock-down reagent: siRNA pool against human genes. Challenge: anchor drug BYL719 at 1 µM, cetuximab at 5 µg/ml or trametinib at 10 nM, or DMSO vehicle alone; exposure time not given. Measured: 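Cell survival as a fraction of the non-targeting pool, replicate means; robust z-score for silencing alone under DMSO; synergy score for each of BYL719, cetuximab and trametinib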. Scale: robust z-score, siRNA alone (DMSO): higher = more viable cells; strongly negative means essential. Rule for the call: 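a gene counts as active if its DMSO-only robust z-score falls under -3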. Calls: active = essential (knock-down alone); inactive = not essential.
The whole screen tested 794 reagents; shown is an unselected part. Over the whole deposit, 16 (2%) got an active call. 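Active marks cell loss from silencing alone; drug synergy shows only in the synergy scores, not the calls.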 Unmarked entries are inactive. Not all columns of the deposit are shown. Not given: the amount of reagent, the time to read-out.

ERN1
- robust z-score, siRNA alone (DMSO): -1.87

CUL1
- robust z-score, siRNA alone (DMSO): 0.561

PDK4
- robust z-score, siRNA alone (DMSO): 0.561

CALM1
- robust z-score, siRNA alone (DMSO): -1.14

MAP3K9
- robust z-score, siRNA alone (DMSO): -1.77

CIB2
- robust z-score, siRNA alone (DMSO): -3.73 (active)

PSKH1
- robust z-score, siRNA alone (DMSO): 0.561

PIK3CD
- robust z-score, siRNA alone (DMSO): 0.561

CERK
- robust z-score, siRNA alone (DMSO): 0.561

STK11
- robust z-score, siRNA alone (DMSO): 0.561

AK4
- robust z-score, siRNA alone (DMSO): 0.561

IKBKE
- robust z-score, siRNA alone (DMSO): -0.716

Called active (from the list above):
CIB2
- robust z-score, siRNA alone (DMSO): -3.73 (active)
